# Test results taken from PMC8558330.
# These are yes or no findings as the source states them, for the method shown. Binding can be weak; no strength is given.
# Target: T1, VmD6PKL2 (D6 PROTEIN KINASE LIKE 2 of V. montana), two-hybrid bait PGBKT7-VmD6PKL2 (Vernicia montana)
# T1 sequence: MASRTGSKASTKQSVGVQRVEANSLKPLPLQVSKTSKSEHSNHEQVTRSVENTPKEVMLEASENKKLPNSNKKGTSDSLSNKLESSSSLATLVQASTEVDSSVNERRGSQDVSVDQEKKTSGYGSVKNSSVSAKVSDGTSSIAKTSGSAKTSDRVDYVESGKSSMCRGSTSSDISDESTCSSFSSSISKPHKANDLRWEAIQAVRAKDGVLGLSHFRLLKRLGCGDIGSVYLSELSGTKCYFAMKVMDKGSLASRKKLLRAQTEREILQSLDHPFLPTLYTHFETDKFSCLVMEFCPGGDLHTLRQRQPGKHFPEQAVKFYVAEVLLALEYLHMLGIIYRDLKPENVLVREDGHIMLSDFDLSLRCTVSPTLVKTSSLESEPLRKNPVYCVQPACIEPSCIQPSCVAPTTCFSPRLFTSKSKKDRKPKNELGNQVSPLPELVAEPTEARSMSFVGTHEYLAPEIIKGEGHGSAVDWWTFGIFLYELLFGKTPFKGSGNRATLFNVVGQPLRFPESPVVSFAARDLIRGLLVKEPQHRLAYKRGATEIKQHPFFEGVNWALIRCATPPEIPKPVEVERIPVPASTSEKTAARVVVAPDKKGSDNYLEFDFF
# Assay: two-hybrid; Gal4 system; bait PGBKT7-VmD6PKL2 in Y2HGold mated with PGADT7-cDNA library of Fof-1-infected V. montana root in Y187; SD/-Trp-Leu-His/X-α-Gal/AbA, then SD/-Ade-Trp-Leu-His/X-α-Gal/AbA; prey plasmids retransfected for one-to-one-interaction screening
substance,measurement,value
"VmABCI15 (ATP-binding cassette I15), two-hybrid prey from the V. montana root cDNA library (Vernicia montana)",binding,binds
